Test system: scopolamine-induced memory deterioration
Experiment: step-through passive avoidance test
Format: in vivo, ICR mice
Conditions: scopolamine-injected group compared with normal saline-treated group (180 seconds, maximum cut-off time)
Experimental: Louis, Mo., USA). 4-week-old male ICR mice were purchased from Korean BioLink Co. (Chungbuk, Korea). After an adaptation period of one week, the mice were used in a test and all reagents were administered intraperitoneally. […] A passive avoidance test was performed in the same bright room and dark room. A floor of each room was formed in a shape in which 2-mm stainless steel rods were separated from each other at 1-cm intervals. Bright squares (20×20×20 cm) had 100-W bulbs. These squares were connected to a guillotine door. For an acquisition trial, the mouse was placed in the bright room after injection of the reagents and the door was opened after 10 seconds. When the mouse completely entered the dark room, the door was closed and electric shock was applied for 3 seconds. A retention trial was performed after 24 hours of the acquisition trial and the mouse was positioned in the bright room. A latency time of the acquisition and retention trials was measured by a time until the mouse entered the dark room of the box after the door was opened. The retention latency in the passive avoidance test represents a long-term memory function in rodents.

## CN1[C@@H]2C[C@@H](OC(=O)[C@H](CO)c3ccccc3)C[C@H]1[C@@H]1O[C@@H]12 [scopolamine, Scopolamine, reference compound]
  average of the step-through responses (retention latency): significantly lowered

— patent publication US11369659B2, “Method of enhancing a brain or cognitive function” (Brainon Inc., priority 2015, dated 2022)
